Assay [1] deals with GCP16 (human) (UniProt Q7Z5G4). Nature of the assay: co-purification.
Assay [2] addresses GCP16 with a N-terminal His tag (human) (UniProt Q7Z5G4). Nature of the assay: pull-down + SEC.

By UniProt entry, the sequences of proteins in these tests, tags left out. Where a name states a change or a piece, a line headed by the entry shows the natural chain unless it says otherwise. Residues count along the entry.
UniProt Q7Z5G4, whole entry: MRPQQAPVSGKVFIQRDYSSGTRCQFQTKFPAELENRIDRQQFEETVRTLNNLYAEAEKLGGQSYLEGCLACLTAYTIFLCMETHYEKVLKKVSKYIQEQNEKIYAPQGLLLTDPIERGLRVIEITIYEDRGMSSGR
UniProt Q9Y397, 1-305: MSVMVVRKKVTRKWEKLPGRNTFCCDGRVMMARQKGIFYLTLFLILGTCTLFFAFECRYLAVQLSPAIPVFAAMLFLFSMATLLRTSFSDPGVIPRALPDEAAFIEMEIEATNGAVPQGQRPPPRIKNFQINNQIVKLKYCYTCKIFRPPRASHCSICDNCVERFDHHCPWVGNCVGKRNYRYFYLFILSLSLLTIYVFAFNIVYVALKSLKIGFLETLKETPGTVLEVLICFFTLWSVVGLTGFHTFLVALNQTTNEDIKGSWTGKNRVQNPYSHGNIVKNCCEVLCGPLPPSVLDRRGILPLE
UniProt Q9Y397, whole entry, looked up, stated change not applied: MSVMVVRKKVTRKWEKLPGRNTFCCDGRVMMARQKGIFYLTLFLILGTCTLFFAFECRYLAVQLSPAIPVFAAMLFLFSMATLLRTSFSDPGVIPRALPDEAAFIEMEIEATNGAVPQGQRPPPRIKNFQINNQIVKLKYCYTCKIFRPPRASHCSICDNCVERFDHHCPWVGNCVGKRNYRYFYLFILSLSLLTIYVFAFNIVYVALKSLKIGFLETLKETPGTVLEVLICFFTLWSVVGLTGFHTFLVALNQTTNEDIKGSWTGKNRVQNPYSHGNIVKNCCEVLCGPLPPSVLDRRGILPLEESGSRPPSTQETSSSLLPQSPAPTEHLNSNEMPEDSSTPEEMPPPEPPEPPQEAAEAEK
UniProt Q8IZN3, whole entry: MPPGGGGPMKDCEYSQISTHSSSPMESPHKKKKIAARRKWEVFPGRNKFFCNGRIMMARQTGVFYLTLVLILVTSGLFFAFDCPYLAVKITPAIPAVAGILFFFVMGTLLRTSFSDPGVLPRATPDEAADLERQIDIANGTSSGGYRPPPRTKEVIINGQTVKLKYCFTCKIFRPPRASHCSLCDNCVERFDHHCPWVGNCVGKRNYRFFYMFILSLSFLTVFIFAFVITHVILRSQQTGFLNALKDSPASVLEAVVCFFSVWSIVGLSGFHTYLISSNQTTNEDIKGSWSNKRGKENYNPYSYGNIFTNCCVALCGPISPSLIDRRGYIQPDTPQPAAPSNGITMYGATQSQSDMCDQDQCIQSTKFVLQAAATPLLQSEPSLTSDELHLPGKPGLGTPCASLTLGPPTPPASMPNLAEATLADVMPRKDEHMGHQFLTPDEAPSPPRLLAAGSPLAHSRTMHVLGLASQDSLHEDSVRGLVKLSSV

Results are given in words; binding and its absence hold for the method and conditions named. For part of these data: In cells and extracts the contact can be indirect. Some binding calls cover weakened binding; strength is not graded here.

On to “truncated form (residues 1-305) of DHHC9 (from UniProt Q9Y397 1-305) (domain or fragment)”, for which the binding entry in assay [1] is “binds”. Turning to “DHHC14 with a C-terminal FLAG tag (from UniProt Q8IZN3 1-488) (enzyme)”, the binding entry in assay [2] is given as “binds”. Turning to “C169A catalytic dead mutant of DHHC9 (from UniProt Q9Y397 1-364) (enzyme)”, the binding entry in assay [1] is given as “binds”.

For the origin of these results see publication doi:10.1101/2022.12.12.520165.
